Entries after “also recorded” stand apart in the source; their conditions may differ. At least one compound was matched to its structure with a doubt left.
Experiments:
[1] = Body weight, glycemia, insulin and hepatic steatosis in rosiglitazone-treated (NZO×NON)F1 male mice; format: in vivo, mouse
liver lipid metabolome = conditions: data acquired by Dr. Edward Leiter of the Jackson Laboratory; cited from earlier work

CN(CCOc1ccc(CC2SC(=O)NC2=O)cc1)c1ccccn1 (stereo not drawn) [rosiglitazone]
anti-hyperglycemic effect ([1]; (NZO×NON)F1 male mice): potent anti-hyperglycemic effect; also recorded: remission from hyperglycemia | plasma insulin concentrations ([1]; treated mice): reduced plasma insulin concentrations | expression of genes involved in the retention of lipid by the liver (liver lipid metabolome): increase

Reference: patent US20040143461A1, “Generating, viewing, interpreting, and utilizing a quantitative database of metabolites” (Lipomics Technologies, Inc., priority 2001, published 2004)
